Results as given in PubChem BioAssay AID1259354 (Paczesny and Yang Labs, IUPUI and University of Michigan, 2018).
Several values for one entry are separate records, joined by “and”; a condition that tells them apart may be missing. Identical values can stand only once. About 1,800 (2.3%) of roughly 78,000 compounds were called active. This list was built around the results that the source calls inconclusive (neither active nor inactive); the mix of calls is not that of the screen. Cut-off read from the data, not from the text of the source: active = inhibition above about 30%; inconclusive = mostly about 10% to 28%; inactive = weaker than that.

By UniProt entry, the sequences of proteins in these tests, tags left out. Where a name states a change or a piece, a line headed by the entry shows the natural chain unless it says otherwise.
UniProt Q01638: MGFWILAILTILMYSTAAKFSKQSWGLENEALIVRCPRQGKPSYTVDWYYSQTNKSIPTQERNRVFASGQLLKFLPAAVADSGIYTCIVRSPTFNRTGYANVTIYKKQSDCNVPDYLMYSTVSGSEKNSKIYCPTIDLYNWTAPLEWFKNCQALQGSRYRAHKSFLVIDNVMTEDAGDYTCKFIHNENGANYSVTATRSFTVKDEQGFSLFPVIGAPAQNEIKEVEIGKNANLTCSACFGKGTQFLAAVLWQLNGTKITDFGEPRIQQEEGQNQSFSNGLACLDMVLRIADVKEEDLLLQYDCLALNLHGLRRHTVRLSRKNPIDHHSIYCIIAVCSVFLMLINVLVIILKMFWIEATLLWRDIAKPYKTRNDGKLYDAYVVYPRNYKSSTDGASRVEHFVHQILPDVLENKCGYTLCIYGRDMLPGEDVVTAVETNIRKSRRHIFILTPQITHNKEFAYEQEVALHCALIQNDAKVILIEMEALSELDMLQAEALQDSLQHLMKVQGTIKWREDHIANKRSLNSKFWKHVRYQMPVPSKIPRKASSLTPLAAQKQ

Target: Interleukin-1 receptor-like 1 (Homo sapiens) (UniProt Q01638)
Experiment: blocks human ST2 binding to IL-33, primary screen, biochemical, AlphaLISA (AID 1259354)
Details: AlphaLISA ST2-Fc/biotin-IL-33 interaction, 1 h; at 17 µM, stronger effect = higher value

Compound | inhibition
O=C(c1cccc(Oc2ccccc2)c1)N1CCCC(O)(CO)CC1 (configuration not stated) | inactive
COCC(=O)NC[C@@H]1C=C(C)[C@H](CC(=O)O)C[C@H]1C(C)C | active: 32%
Cn1ccnc1Sc1ccc([N+](=O)[O-])cc1C(=O)c1ccc(Br)cc1 | inconclusive: 14%
Cn1c(=O)[nH]c(=O)c2c1nc(N1CCOCC1)n2Cc1ccccc1Cl | inconclusive: 20%
O=C(c1cc(-c2cccs2)on1)N1CCCCC1 | inconclusive: 17%
Cc1nc(SCc2ccccc2)[nH]c(=O)c1C | inconclusive: 11%
CC(CO)CN(Cc1ccccc1)C(=O)c1ncccc1O (configuration not stated) | inconclusive: 16%
NC(=O)c1ccc2c(c1)C1c3ccccc3C2c2ccccc21 | inactive
Cc1oc2c(O)c(O)ccc2c(=O)c1Oc1ccccc1 | inconclusive: 10%
c1ccc(COc2ccc(OCCCn3ccnc3)cc2)cc1 | inconclusive: 14%
CC(=O)N1N=C(c2ccc(C)cc2)CC1c1ccccc1Cl (configuration not stated) | inconclusive: 11%
O=c1c2c(nc(SCc3ccc(Cl)cc3)n1-c1ccccc1)CCS2 | active: 36% and inconclusive: 13%
O=C(CCn1cc(Cl)cn1)N1CC[C@@H](c2ccc3c(c2)OCO3)[C@H](O)C1 | inconclusive: 14%
Cn1nc([N+](=O)[O-])nc1Sc1nc2ccccc2n1C | inconclusive: 15%
Cc1ccc(OCCCN(C)C(=O)C2CCN(C)C2)cc1C (configuration not stated) | inconclusive: 15%
CCN1C(=O)CSc2ccc(C(=O)NC3CCCC3)cc21 | inactive
CCN(CC)Cc1cnc2c(C(=O)N(C)Cc3sccc3C)cnn2c1 | inconclusive: 11%
COc1cc2c(cc1OC)CN(Cc1ccccc1[N+](=O)[O-])CC2 | inconclusive: 21%
CC12C=CC(C)(O1)C1C(=O)N(c3ccccc3C#N)C(=O)C12 (configuration not stated) | inconclusive: 14%
COC(=O)CN(C)C(=O)C1CCC(=O)N(CCc2cccc(F)c2)C1 (configuration not stated) | inconclusive: 12%
C=CCSCC(=O)N1CCN(C(=O)c2ccccc2)CC1 | inconclusive: 11%
O=c1cc(-c2ccccc2)nc(SCCOc2ccccc2)[nH]1 | inconclusive: 11%
O=C1Nc2ccc(-c3ccccc3F)cc2C(=O)N2CCN(C(=O)c3ccccc3)C[C@H]12 | inconclusive: 12%
COc1ccccc1CC(=O)N1CCC(C(Cc2ccccc2)N(C)C(=O)c2ccccn2)CC1 (configuration not stated) | inconclusive: 26%
N#CCCn1c2c(c3ccccc31)CCCC2 | inconclusive: 21%
C=CCn1c(CCCNC(=O)CC)nc2ccccc21 | inactive
CCC1CCC(N2CCN(c3ccc([N+](=O)[O-])cc3)CC2)CC1 (configuration not stated) | inconclusive: 29%
